Values of other authors in patent US20220016119A1, “METHODS AND TREATMENTS FOR ERECTILE DYSFUNCTION” (Record Buck Farms Medical Cannabis, LLC, priority 2018, published 2022).
For at least one compound, name, drawing or mass did not settle the structure.

Details: administered orally

SMILES	onset of the therapeutic effect after administration	therapeutic effect lasting (duration)
CN1CC(=O)N2[C@H](c3ccc4c(c3)OCO4)c3[nH]c4ccccc4c3C[C@@H]2C1=O [Tadalafil]	about 16 minutes	up to 36 hours
CCCc1nc(C)c2c(=O)[nH]c(-c3cc(S(=O)(=O)N4CCN(CC)CC4)ccc3OCC)nn12 [Vardenafil]	about 40 minutes	about 4 hours
